AC50 and cell number change data for 43 compounds are collected here from PubChem BioAssay AID2685 (National Center for Advancing Translational Sciences (NCATS), 2010).

This assay can be described thus: qHTS Assay for Lipid Storage Modulators in Drosophila S3 Cells.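 On cell number change: cells counted by Cell Tracker Red CMTPX staining in the red channel.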 Particulars: BODIPY lipid droplet fluorescence, 18-24 h; for cell number change: measured here: cell count max response, cells fed with added oleic acid. Put shortly: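 Laser-scanning cytometry quantifies lipid droplet accumulation (500–530 nm total intensity; droplet/cell object ratio) in oleic acid-fed (400 uM added) Drosophila S3 cells treated with a concentration series. 20 uM Triacsin C defined 100% inhibition.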

Setting [1] is: measured here: lipid fluorescence (Fed channel) AC50, cells fed with added oleic acid.
The mark [2] stands for this setting: measured here: cell number channel AC50, cells fed with added oleic acid.

The other results are listed elsewhere or left out. Further columns of the screen follow, without active or inactive calls. Compounds called inactive in the main read-out are mostly missing here. Words in brackets tell the shape of the fitted curve; partial curves, single points and poor fits give uncertain potencies.

With `Cc1sc(NC(=O)CCS(=O)(=O)c2ccccc2)c(C#N)c1C`, the AC50 under setting [1] is 0.13 µM [rising, full curve, poor fit].

Regarding `CCC(=O)N1CCN(c2ccc(Cl)cc2NC(=O)c2cccc([N+](=O)[O-])c2)CC1`, the cell number change was -1.92%. The AC50 under setting [1] is 0.731 µM [rising, single point]. In the case of `O=c1ccc2cc(S(=O)(=O)N3CCN(c4ccccc4)CC3)ccc2o1`, the AC50 under setting [1] was 3.66 µM [falling, partial curve].

For the compound `COCC(C)NC(C(=O)Nc1ccc(C)c(Cl)c1)c1ccccc1` (centres undefined), the cell number change was found to be 146%. With `CCc1nc(SCc2cccnc2)[nH]c(=O)c1C`, the cell number change was -51.6%. The AC50 under setting [2] is 29.1 µM [falling, partial curve, poor fit].

For the compound `CCOc1cc(-c2sc(Nc3ccccc3)n[n+]2C)ccc1OC`, the cell number change is -26.9%. As for `COC(=O)c1c(S(=O)(=O)N2CCOCC2)c(C)n(C)c1C`, the cell number change amounted to 16.9%. The AC50 under setting [1] is 25.9 µM [rising, single point]. Turning to `C=CCN(C(=O)c1cccc(C(F)(F)F)c1)C1(C(=O)Nc2ccccc2)CCN(C(C)C)CC1`, the cell number change was -31.2%. For the same compound, the concentration at half-maximal activity (AC50) under setting [1] was 0.0058 µM [falling, full curve, poor fit]. Take `COc1ccc(NS(=O)(=O)c2cccc(C(=O)NCC3CCCO3)c2)cc1` (centres undefined): the AC50 under setting [1] was 29.1 µM [rising, single point]. Regarding `CCN(CC)CCNS(=O)(=O)c1ccc2c3c(cccc13)C(=O)N2`, the cell number change is -7.97%. Under setting [1], the AC50 is 6.51 µM [rising, single point]. As for `COc1ccc(CCNC(=O)c2cc(Cl)nc3ccccc23)cc1`, the cell number change came out at 4.32%. Moreover, under setting [1], the AC50 is 0.13 µM [rising, full curve, poor fit]. For the compound `COc1ccc(/C=C(\NC(=O)c2ccccc2)C(=O)NCCN2CCOCC2)cc1`, the cell number change came to 2.1%. As to `CN(C)C(=O)N1CCCC(C(=O)NCc2cccs2)C1` (centres undefined), the cell number change was -86.5%. For the same compound, the AC50 under setting [2] is 29.1 µM [falling, partial curve]. Besides, the AC50 under setting [1] is 7.31 µM [falling, partial curve]. Regarding `Nc1nnc(COc2ccc(Br)cc2Br)s1`, the cell number change is -7.05%. The same measure, in the same setting: for `O=C(NC1CCCCC1)C1CCC(CNS(=O)(=O)c2cccc3nsnc23)CC1` (centres undefined) the value was 24%.

With `CCOc1ccc2c(C)c(C)c(=O)oc2c1OCC`, under setting [1], the AC50 is 6.51 µM [rising, single point].

For the compound `CCOC(=O)c1ccccc1NC(=O)CN1C(=O)c2ccccc2S1(=O)=O`, the cell number change stood at 0.406%. Moreover, the concentration at half-maximal activity (AC50) under setting [1] was 18.4 µM [rising, single point]. For `Cc1ccccc1NS(=O)(=O)c1ccc(OCCNS(C)(=O)=O)cc1`, the cell number change was 16.1%. As for `CCNC(=S)N1CCN(S(=O)(=O)c2ccc(C)cc2)CC1`, the half-maximal activity concentration (AC50) was 0.461 µM [falling, partial curve] under setting [2] and 4.61 µM [falling, single point] under setting [1]. As to `COc1cc2c(cc1NC(=O)COC(=O)C(CCSC)NC(=O)c1ccccc1Cl)oc1ccccc12` (centres undefined), the cell number change is -16.5%. With `Cc1ccc(S(=O)(=O)N2CCN(C(=O)N(c3ccccc3)c3ccccc3)CC2)cc1`, the cell number change turned out to be 54.8%. Besides, the AC50 under setting [2] was 5.17 µM [rising, partial curve, poor fit]. Turning to `Oc1ccc(/C=N/Nc2ncc(Br)cn2)c(O)c1`, the cell number change is -22.5%. Under setting [1], the AC50 was 6.51 µM [falling, single point]. For the compound `Cc1cc(C)c(C)c(OCCCCN(C)Cc2ccccc2)c1`, the cell number change was -16.1%. Under setting [1], the concentration at half-maximal activity (AC50) is 18.4 µM [falling, single point]. Turning to `CC12CC(NC(=O)N1CCc1ccccc1)c1ccccc1O2` (centres undefined), the cell number change was -31%. The AC50 under setting [2] was 13 µM [falling, single point]. Regarding `Fc1ccccc1N1CC(c2ccccc2)C(c2cccs2)=N1` (centres undefined), the cell number change amounted to 3.24%. In addition, the AC50 under setting [1] is 0.184 µM [rising, full curve, poor fit]. With `c1ccc(Nc2cccc(Nc3ccccc3)n2)cc1`, the cell number change was -125%. The half-maximal activity concentration (AC50) under setting [2] was 29.1 µM [falling, single point].

As to `CCc1ccc2[nH]cc(C(=O)OCCOC)c(=O)c2c1`, the cell number change was determined as 3.9%. The AC50 under setting [1] is 0.461 µM [falling, full curve, poor fit].

As to `O=C(COc1ccccc1Cl)Nc1nc(-c2cccs2)cs1`, the cell number change is -18%. Besides, the concentration at half-maximal activity (AC50) under setting [1] is 16.4 µM [falling, partial curve, poor fit]. As to `O=C(c1cccs1)N1CCN(C2CCCCC2)CC1`, the cell number change came to 9.42%. Moreover, the AC50 under setting [1] was 0.291 µM [falling, partial curve, poor fit]. Take `CCCCN(CC)Cc1ccc(CNC(=O)Nc2ccc(OCC)cc2)o1`: the cell number change came to 44.3%. In addition, under setting [2], the AC50 is 16.4 µM [rising, single point]. For the same compound, the concentration at half-maximal activity (AC50) under setting [1] was 18.4 µM [rising, single point]. Take `O=C(Nc1cccc(S(=O)(=O)Nc2ccc(Cl)cc2)c1)c1ccc2c(c1)OCCO2`: the cell number change is -13.6%. For the same compound, under setting [1], the AC50 was 8.2 µM [rising, partial curve]. Turning to `COc1ccc(N2C(=NC(=O)c3ccc(Br)cc3)SC3CS(=O)(=O)CC32)cc1` (centres undefined), the cell number change is -32%. The half-maximal activity concentration (AC50) under setting [2] is 18.4 µM [falling, single point]. With `Cc1ccc(C(=O)c2cc3ccccc3o2)cc1[N+](=O)[O-]`, the cell number change was -57.8%. For the compound `O=C(NCc1ccccc1)c1cccc(COc2ccccc2Cl)c1`, the cell number change is -6.42%. Under setting [1], the concentration at half-maximal activity (AC50) was 29.1 µM [falling, single point].

On to `Cc1ccc(-c2ccc(CCC(=O)O)n2NC(=O)c2cccs2)cc1`, for which the cell number change was -48.5%. In addition, under setting [2], the AC50 was 0.00461 µM [falling, full curve, poor fit]. Besides, the AC50 under setting [1] is 5.17 µM [falling, single point]. `Cc1nn(CC(=O)N2CCN(c3ccccc3)CC2)c(=O)c2ccccc12`: the cell number change is 16.4%.

As to `CCOC(=O)C1CCCN(S(=O)(=O)c2c(C)noc2C)C1` (centres undefined), the concentration at half-maximal activity (AC50) under setting [1] is 29.1 µM [rising, single point]. With `CCc1ccccc1NC(=O)CNC(=O)c1cc(C2CC2)nn1-c1ccccc1`, the cell number change was 12.6%. For the same compound, under setting [1], the AC50 was 0.58 µM [falling, single point]. As to `COc1ccc(C(=O)COC(=O)CCNS(=O)(=O)c2ccccc2)cc1Br`, the cell number change was -5.28%. The AC50 under setting [1] is 0.92 µM [falling, full curve].

On to `Cc1ccc(S(=O)(=O)N2CCN(C(=O)CCOc3ccccc3C)CC2)cc1C`, for which the cell number change is 108%. Besides, the AC50 under setting [2] is 18.4 µM [rising, partial curve]. For `C=CCn1c(Cc2ccccc2)n[nH]c1=S`, the cell number change stood at 6.97%. As for `Cc1noc2ncnc(N3CCN(c4ccc(F)cc4)CC3)c12`, the cell number change is 17.8%. Under setting [1], the AC50 is 16.4 µM [rising, single point]. Turning to `Cc1c(NC(=O)C23CC4CC(CC(C4)C2)C3)c(=O)n(-c2ccccc2)n1C`, the cell number change is -15.7%. Also, the AC50 under setting [1] was 29.1 µM [falling, single point].

Broadly, the AC50 is the midpoint of the concentration-response curve, whichever way the signal moves.
